These results are taken from PubChem BioAssay AID248 (DTP/NCI, 2004).

The test system of the assay is L1210 leukemia ip in BDF1 mice, survival T/C. As to the kind of experiment: NCI In Vivo Anticancer Drug Screen. Data for tumor model L1210 Leukemia (intraperitoneal) in B6D2F1 (BDF1) mice. The note with it: T/C endpoint: mean survival time, higher T/C = longer survival.
Setting [1] is: dose: 100.0 mg/kg/injection, schedule: Q04DX003 (ip), vehicle: saline.
Setting [2] is: dose: 200.0 mg/kg/injection, schedule: Q04DX003 (ip), vehicle: saline.
The mark [3] stands for this setting: dose: 50.0 mg/kg/injection, schedule: Q01DX001 (ip), vehicle: saline.
Setting [4] is: dose: 100.0 mg/kg/injection, schedule: Q01DX001 (ip), vehicle: saline.
Setting [5] is: dose: 200.0 mg/kg/injection, schedule: Q01DX001 (ip), vehicle: saline.
[6] abbreviates: dose: 400.0 mg/kg/injection, schedule: Q01DX001 (ip), vehicle: saline.
Setting [7] is: dose: 400.0 mg/kg/injection, schedule: Q04DX003 (ip), vehicle: saline.
The mark [8] stands for this setting: dose: 400.0 mg/kg/injection, schedule: Q04DX003 (ip), vehicle: Klucel (hydroxypropylcellulose) (HPC).
The mark [9] stands for this setting: dose: 200.0 mg/kg/injection, schedule: Q01DX009 (ip), vehicle: Klucel (hydroxypropylcellulose) (HPC).
The mark [10] stands for this setting: dose: 400.0 mg/kg/injection, schedule: Q01DX009 (ip), vehicle: Klucel (hydroxypropylcellulose) (HPC).

Each structure is given as a SMILES string. The list shows only some results of the screen, not a fair sample: it is rich in T/C values a quarter to a half above the control, in often repeated tests (any T/C) and in doses without a T/C. Other doses and runs of a compound stand elsewhere. T/C: endpoint of the treated group in % of that of the vehicle group. Some doses have a count of surviving animals in place of a T/C: the source holds a T/C of zero for them, seemingly a mark for toxic or unscored doses. Some doses without a T/C left all or most animals alive at the check, yet need not have been tolerated: the source hardly ever lists a survival T/C far under the control, and the zero likely stands for such cases as well. Survivors were counted at the toxicity check, usually on the fifth day, unless a day is given; later deaths do not show. Schedules are NCI's codes, taken here to give the interval after Q, in days (D) or hours (H), and the number of doses after X. Some entries were tested several times; the values are given in rising order. Some schedule codes hold Z or #, which are not explained here.

`Cc1cc2nc3ccc(=[N+](C)C)cc-3sc2cc1N`: the survivor count is listed as 0 of 6 (dose: 75.0 mg/kg/injection, schedule: Q01DX009 (ip), vehicle: saline); 4 of 6 under setting [1]; 0 of 6 (dose: 115.0 mg/kg/injection, schedule: Q01DX009 (ip), vehicle: saline); 0 of 6 (dose: 170.0 mg/kg/injection, schedule: Q01DX009 (ip), vehicle: saline); 0 of 6 under setting [2].
With `CC1(C)N=C(N)N=C(N)N1c1cccc(CCCCCc2ccccc2)c1`, the survivor count runs as follows: under setting [3], 2 of 6; under setting [4], 0 of 6 and 1 of 6; under setting [5], 0 of 6; under setting [6], 0 of 6.
As for `O=P(O)(O)OCC(O)CF` (stereo not given), the survivor count by setting is: (dose: 44.0 mg/kg/injection, schedule: Q01DX009 (ip), vehicle: saline with Tween-80) 1 of 6; (dose: 88.0 mg/kg/injection, schedule: Q01DX009 (ip), vehicle: saline with Tween-80) 0 of 6; (dose: 175.0 mg/kg/injection, schedule: Q01DX009 (ip), vehicle: saline with Tween-80) 0 of 6; (dose: 175.0 mg/kg/injection, schedule: Q04DX003 (ip), vehicle: saline) 1 of 6; (dose: 262.5 mg/kg/injection, schedule: Q04DX003 (ip), vehicle: saline) 0 of 6.
For the compound `Cc1cccc(CN)n1`, the survivor count under setting [7] is reported as 1 of 6.
On to `CC(C)(C)c1cc(C[P+](c2ccccc2)(c2ccccc2)c2ccccc2)cc(C(C)(C)C)c1O`, for which the survivor count was 3 of 6 (dose: 6.25 mg/kg/injection, schedule: Q01DX009 (ip), vehicle: saline); 3 of 6 (dose: 12.5 mg/kg/injection, schedule: Q04DX003 (ip), vehicle: saline); 1 of 6 (dose: 25.0 mg/kg/injection, schedule: Q04DX003 (ip), vehicle: saline); 0 of 6 (dose: 50.0 mg/kg/injection, schedule: Q04DX003 (ip), vehicle: saline); 0 of 6 under setting [1]; 1 of 6 under setting [2]. Besides, the survivor count under setting [7] is recorded as 1 of 6.
Take `CC(C)(N)CNCC(C)(C)N`: the survivor count under setting [6] is reported as 1 of 6.
As to `COc1cccc2c1[nH]c1cc3ccncc3cc12`, the survivor count is, setting by setting: under setting [5], 1 of 6; under setting [6], 0 of 6; under setting [8], 0 of 6.
On to `CC(=O)c1ccccc1OB(F)F`, for which the survivor count under setting [6] is on record as 1 of 6.
Consider `Cc1ccc([I+]c2ccc(C)cc2C)c(C)c1`, for which the survivor count is, setting by setting: (dose: 9.2 mg/kg/injection, schedule: Q01DX009 (ip), vehicle: saline with Tween-80) 4 of 6; (dose: 12.5 mg/kg/injection, schedule: Q04DX003 (ip), vehicle: acetone) 6 of 6; (dose: 14.0 mg/kg/injection, schedule: Q01DX009 (ip), vehicle: saline with Tween-80) 2 of 6; (dose: 21.0 mg/kg/injection, schedule: Q01DX009 (ip), vehicle: saline with Tween-80) 0 of 6; (dose: 25.0 mg/kg/injection, schedule: Q04DX003 (ip), vehicle: acetone) 2 of 6; under setting [3], 0 of 6. Moreover, the survivor count (dose: 50.0 mg/kg/injection, schedule: Q04DX003 (ip), vehicle: acetone) is 0 of 6; the survivor count under setting [4] is reported as 0 of 6; the survivor count under setting [5] was 0 of 6; the survivor count under setting [6] was 0 of 6.
For `COc1ccc(C[C@H]2NC[C@H](O)[C@H]2OC(C)=O)cc1`, the survivor count (dose: 400.0 mg/kg/injection, schedule: Q01DX Z (ip), vehicle: saline) is 2 of 6.
`Cc1cccnc1NC(=O)/C=C/C(=O)O`: the survivor count (dose: 75.0 mg/kg/injection, schedule: Q01DX009 (ip), vehicle: alcohol) is on record as 1 of 6; the survivor count (dose: 100.0 mg/kg/injection, schedule: Q04DX003 (ip), vehicle: acetone) is given as 1 of 6; the survivor count (dose: 115.0 mg/kg/injection, schedule: Q01DX009 (ip), vehicle: alcohol) is 0 of 6; the survivor count (dose: 170.0 mg/kg/injection, schedule: Q01DX009 (ip), vehicle: alcohol) is 0 of 6; the survivor count (dose: 200.0 mg/kg/injection, schedule: Q04DX003 (ip), vehicle: acetone) is reported as 0 of 6; the survivor count (dose: 400.0 mg/kg/injection, schedule: Q04DX003 (ip), vehicle: acetone) was 0 of 6.
Turning to `O=C1C=C(c2ccccc2)C(c2ccccc2)C1=O` (stereo not given), the survivor count (dose: 100.0 mg/kg/injection, schedule: Q04DX002 (ip), vehicle: Klucel (hydroxypropylcellulose) (HPC)) is reported as 3 of 3.
For `c1nc(NCC2CC2)c2[nH]cnc2n1`, the survivor count under setting [6] is 0 of 6.
`C=C(Cl)CN(C)CC(=C)Cl`: the survivor count reads like this: under setting [5], 0 of 6; under setting [6], 0 of 6.
With `Cc1ccccc1N1C(N)=NC(N)=NC1(C)C`, the survivor count is, setting by setting: (dose: 100.0 mg/kg/injection, schedule: Q01DX009 (ip), vehicle: Klucel (hydroxypropylcellulose) (HPC)) 0 of 6; (dose: 150.0 mg/kg/injection, schedule: Q01DX001 (ip), vehicle: saline) 0 of 6; under setting [9], 0 of 6; (dose: 300.0 mg/kg/injection, schedule: Q01DX001 (ip), vehicle: saline) 0 of 6; under setting [10], 0 of 6.
As to `Cc1ccc(CN=C(N)CSS(=O)(=O)O)cc1C`, the survivor count (dose: 400.0 mg/kg/injection, schedule: Q04DX002 (ip), vehicle: Klucel (hydroxypropylcellulose) (HPC)) is on record as 3 of 3.
With `C[N+]12CCC3=C(CC(=O)OC3)c3cccc(c31)CC2` (stereo not given), the survivor count is 3 of 6 (dose: 50.0 mg/kg/injection, schedule: Q01DX001 (ip), vehicle: carboxymethylcellulose (CMC)); 0 of 6 (dose: 100.0 mg/kg/injection, schedule: Q01DX001 (ip), vehicle: carboxymethylcellulose (CMC)); 0 of 6 (dose: 200.0 mg/kg/injection, schedule: Q01DX001 (ip), vehicle: carboxymethylcellulose (CMC)); 0 of 6 (dose: 400.0 mg/kg/injection, schedule: Q01DX001 (ip), vehicle: carboxymethylcellulose (CMC)).
For `Cn1[nH]c(NC=O)c2cc3c(=O)[nH]c(=O)cc3nc21`, the survivor count (dose: 400.0 mg/kg/injection, schedule: Q01DX001 (ip), vehicle: Klucel (hydroxypropylcellulose) (HPC)) is 5 of 6.
Turning to `S=C1NCCCS1`, the survivor count is 3 of 6 under setting [9] and 0 of 6 under setting [10].
On to `CCOC(=O)c1[nH]c(C)c(C)c1-c1ccccc1`, for which the survivor count under setting [8] is 6 of 6.
Regarding `[C-]#[N+]C(C)(CC)c1ccccc1` (stereo not given), the survivor count by setting is: (dose: 35.0 mg/kg/injection, schedule: Q04DX003 (ip), vehicle: acetone) 6 of 6; (dose: 50.0 mg/kg/injection, schedule: Q01DX001 (ip), vehicle: acetone) 3 of 6; (dose: 55.0 mg/kg/injection, schedule: Q04DX003 (ip), vehicle: acetone) 6 of 6; (dose: 80.0 mg/kg/injection, schedule: Q04DX003 (ip), vehicle: acetone) 4 of 6; (dose: 100.0 mg/kg/injection, schedule: Q01DX001 (ip), vehicle: acetone) 0 of 6; (dose: 200.0 mg/kg/injection, schedule: Q01DX001 (ip), vehicle: acetone) 0 of 6. For the same compound, the survivor count (dose: 400.0 mg/kg/injection, schedule: Q01DX001 (ip), vehicle: acetone) is on record as 0 of 6.
For `O=C1OC(c2ccccc2)CC1N1CCCCC1` (stereo not given), the survivor count (dose: 400.0 mg/kg/injection, schedule: Q01DX001 (ip), vehicle: saline sonified) is on record as 3 of 6.
